No constants are given. Whether binding was seen depends on the method and setting. Binding seen in cells or lysates may run through a third protein. Some entries that bind do so weakly or less than the wild type.

Chains of the proteins cited; added tags and fusions are not shown. Lines headed by an entry give the natural chain unless they say otherwise; changes in a name come on top.
UniProt P0DTC4: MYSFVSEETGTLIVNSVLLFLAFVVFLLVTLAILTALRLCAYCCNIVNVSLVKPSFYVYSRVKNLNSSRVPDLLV

Test [1] deals with T1, CD1d, immature ER form (precipitated by antibody CD1d.D5) (UniProt P15813).
T1 sequence: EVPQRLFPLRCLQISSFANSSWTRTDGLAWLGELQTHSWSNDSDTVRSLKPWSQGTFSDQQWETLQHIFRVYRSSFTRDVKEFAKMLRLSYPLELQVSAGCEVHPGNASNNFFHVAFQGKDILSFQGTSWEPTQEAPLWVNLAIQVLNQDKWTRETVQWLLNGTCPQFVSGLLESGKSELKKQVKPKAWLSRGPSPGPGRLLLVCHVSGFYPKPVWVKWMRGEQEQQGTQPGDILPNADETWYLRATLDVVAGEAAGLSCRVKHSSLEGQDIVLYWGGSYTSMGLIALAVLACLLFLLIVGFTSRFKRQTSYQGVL
The test can be described thus: co-IP.

The target of test [2] is T2, CD1d, mature post-ER form (precipitated by antibody CD1d.51.1) (UniProt P15813).
T2 sequence (chain, complex glycosylation): T1 sequence
The test can be described thus: co-IP.

As for “SARS-CoV-2 E protein transmembrane domain (TM, amino acids 9-38), Strep-tagged (from UniProt P0DTC4 9-38) (domain or fragment)”, the binding result in test [1] and in test [2] was “binds” in each case.
As to “SARS-CoV-2 envelope (E) protein, Strep-tagged (from UniProt P0DTC4 1-75)”, the binding entry in test [1] was “binds”.

The record behind these values is publication PMC10128965.
